{
  "sequences": {"note": "The chains behind the UniProt entries cited, without tags or fusion partners.", "UniProt Q13131": "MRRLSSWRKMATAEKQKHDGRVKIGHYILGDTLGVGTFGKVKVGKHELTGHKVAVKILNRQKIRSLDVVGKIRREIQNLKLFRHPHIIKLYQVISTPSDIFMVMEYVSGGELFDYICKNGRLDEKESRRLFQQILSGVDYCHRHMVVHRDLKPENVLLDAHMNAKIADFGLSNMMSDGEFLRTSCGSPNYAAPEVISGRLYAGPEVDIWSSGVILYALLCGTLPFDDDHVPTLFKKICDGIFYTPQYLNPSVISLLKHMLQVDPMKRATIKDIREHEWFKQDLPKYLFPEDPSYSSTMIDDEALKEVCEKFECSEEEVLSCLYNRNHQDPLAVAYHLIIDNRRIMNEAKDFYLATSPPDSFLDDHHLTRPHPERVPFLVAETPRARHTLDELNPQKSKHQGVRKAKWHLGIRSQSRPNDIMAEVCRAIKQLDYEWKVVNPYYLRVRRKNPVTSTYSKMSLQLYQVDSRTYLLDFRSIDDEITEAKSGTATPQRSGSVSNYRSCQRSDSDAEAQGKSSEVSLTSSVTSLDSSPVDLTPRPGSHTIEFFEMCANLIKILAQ", "UniProt P46940": "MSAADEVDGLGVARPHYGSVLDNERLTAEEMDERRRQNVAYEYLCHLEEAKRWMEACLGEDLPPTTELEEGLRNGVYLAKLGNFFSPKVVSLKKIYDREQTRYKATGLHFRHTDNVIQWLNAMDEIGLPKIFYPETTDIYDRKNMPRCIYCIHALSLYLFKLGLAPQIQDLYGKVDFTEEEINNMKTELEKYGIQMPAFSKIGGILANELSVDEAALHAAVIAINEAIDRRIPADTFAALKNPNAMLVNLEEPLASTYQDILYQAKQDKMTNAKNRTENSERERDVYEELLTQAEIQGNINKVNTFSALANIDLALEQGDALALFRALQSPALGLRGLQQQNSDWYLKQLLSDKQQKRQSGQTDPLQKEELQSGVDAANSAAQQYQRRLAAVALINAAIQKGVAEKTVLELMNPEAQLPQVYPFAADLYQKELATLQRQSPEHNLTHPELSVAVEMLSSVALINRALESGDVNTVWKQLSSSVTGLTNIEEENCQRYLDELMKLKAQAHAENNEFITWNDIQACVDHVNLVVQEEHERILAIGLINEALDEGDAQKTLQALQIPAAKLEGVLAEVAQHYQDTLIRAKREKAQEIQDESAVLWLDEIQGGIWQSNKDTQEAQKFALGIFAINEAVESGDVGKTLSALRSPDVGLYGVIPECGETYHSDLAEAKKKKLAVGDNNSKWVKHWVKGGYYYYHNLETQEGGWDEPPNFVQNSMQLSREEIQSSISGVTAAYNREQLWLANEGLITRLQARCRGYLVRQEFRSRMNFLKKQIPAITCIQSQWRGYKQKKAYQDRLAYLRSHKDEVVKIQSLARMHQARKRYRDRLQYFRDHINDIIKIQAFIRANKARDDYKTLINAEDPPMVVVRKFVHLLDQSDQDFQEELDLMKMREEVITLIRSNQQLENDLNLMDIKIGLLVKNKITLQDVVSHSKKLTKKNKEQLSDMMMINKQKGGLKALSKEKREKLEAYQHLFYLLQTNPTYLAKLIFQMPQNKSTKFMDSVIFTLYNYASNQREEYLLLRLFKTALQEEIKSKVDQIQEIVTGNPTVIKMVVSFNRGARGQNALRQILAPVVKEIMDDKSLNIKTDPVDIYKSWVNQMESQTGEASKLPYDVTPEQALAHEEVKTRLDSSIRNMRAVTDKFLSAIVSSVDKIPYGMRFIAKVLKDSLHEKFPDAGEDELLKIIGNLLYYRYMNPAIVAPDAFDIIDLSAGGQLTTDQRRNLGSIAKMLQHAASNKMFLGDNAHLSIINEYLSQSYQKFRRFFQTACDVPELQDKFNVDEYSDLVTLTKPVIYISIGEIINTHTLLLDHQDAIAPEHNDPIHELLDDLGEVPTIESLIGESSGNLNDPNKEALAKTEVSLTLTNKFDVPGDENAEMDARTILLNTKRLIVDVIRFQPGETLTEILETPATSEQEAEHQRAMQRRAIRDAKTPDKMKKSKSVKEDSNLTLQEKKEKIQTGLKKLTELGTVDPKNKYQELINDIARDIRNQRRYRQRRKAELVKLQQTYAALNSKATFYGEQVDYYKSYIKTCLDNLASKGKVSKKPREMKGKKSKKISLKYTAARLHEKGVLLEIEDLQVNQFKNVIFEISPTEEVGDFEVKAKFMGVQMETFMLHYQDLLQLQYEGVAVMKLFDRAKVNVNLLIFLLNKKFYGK"},
  "source": "paper PMC7948462",
  "molecular_target": "GFP-AMPKα1 (GFP-tagged α1 subunit of AMP-activated protein kinase) (UniProt Q13131)",
  "assay": "co-IP; GFP-tagged proteins immunoprecipitated with GFP-Trap Agarose from lysates of transfected HEK-293 cells, 3 h; blot with anti-IQGAP1",
  "note": "These are yes or no findings as the source states them, for the method shown. In cells and extracts the contact can be indirect. Some results given as binding are weak or reduced against the parent protein; the word gives no strength.",
  "data": [
    {"substance": "endogenous IQGAP1 (IQ motif-containing GTPase-activating protein 1) (from UniProt P46940 1-1657)", "values": [
      {"measurement": "binding", "result": "binds"}
    ]}
  ]
}
